## Screening data, single-dose tests

Chains of the proteins cited; added tags and fusions are not shown. Residues count along the entry.
UniProt Q4DA54, 1-478: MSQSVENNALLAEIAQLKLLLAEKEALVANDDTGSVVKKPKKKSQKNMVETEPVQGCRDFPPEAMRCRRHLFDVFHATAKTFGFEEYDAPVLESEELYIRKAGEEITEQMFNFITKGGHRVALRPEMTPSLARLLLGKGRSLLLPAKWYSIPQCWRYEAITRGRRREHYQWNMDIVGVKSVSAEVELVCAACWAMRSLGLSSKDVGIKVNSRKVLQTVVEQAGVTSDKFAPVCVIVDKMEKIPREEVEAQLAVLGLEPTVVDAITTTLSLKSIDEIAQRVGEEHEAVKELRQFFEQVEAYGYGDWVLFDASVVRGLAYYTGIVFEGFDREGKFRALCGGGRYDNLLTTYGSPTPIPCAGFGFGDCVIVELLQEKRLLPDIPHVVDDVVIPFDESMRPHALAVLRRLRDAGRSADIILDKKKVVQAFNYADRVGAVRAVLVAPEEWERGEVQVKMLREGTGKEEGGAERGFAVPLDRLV
UniProt P9WPC5, whole entry: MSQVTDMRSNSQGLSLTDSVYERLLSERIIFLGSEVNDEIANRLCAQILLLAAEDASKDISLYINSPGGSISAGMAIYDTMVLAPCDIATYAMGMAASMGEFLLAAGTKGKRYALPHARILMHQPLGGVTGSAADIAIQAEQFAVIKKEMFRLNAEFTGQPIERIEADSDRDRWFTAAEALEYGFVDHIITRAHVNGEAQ
UniProt P9WPC3, whole entry partner: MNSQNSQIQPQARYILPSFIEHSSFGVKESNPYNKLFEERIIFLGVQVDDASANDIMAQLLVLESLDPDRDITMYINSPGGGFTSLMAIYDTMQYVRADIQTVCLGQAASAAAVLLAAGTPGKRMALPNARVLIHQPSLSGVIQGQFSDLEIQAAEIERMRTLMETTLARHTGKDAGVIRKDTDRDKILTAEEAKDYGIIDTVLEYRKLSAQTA
UniProt Q8IDJ8, 1-583: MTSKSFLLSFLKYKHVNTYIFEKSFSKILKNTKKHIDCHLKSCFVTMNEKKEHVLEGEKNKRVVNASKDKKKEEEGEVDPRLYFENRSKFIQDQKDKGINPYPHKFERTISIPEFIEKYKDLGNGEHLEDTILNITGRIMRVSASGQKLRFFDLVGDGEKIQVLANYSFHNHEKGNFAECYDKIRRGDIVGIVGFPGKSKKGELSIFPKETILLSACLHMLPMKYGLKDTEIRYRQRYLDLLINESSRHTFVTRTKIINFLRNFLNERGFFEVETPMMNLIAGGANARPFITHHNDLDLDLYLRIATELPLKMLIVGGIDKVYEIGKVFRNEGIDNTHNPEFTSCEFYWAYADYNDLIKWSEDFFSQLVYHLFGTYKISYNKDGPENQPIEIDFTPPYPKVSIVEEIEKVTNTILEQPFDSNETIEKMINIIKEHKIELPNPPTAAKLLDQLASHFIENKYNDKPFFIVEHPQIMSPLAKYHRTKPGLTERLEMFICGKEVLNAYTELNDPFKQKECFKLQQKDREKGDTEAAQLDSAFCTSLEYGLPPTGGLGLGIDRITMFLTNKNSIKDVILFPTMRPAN

Results are given as percent effect. How 0% and 100% were set is not recorded. Most values in the screen are low, and negative values occur. Compounds were drawn at random from those tested, without regard to their results. Two or more numbers in one place are separate tests of the same structure; such repeats can differ widely. A dash means the value is not listed here; it may have been measured.

Leishmania in macrophages: 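Cell assay of Leishmania donovani living inside macrophages; the read-out is not stated. Concentration: 30 µM. Direction is inferred from retests: higher values go with stronger inhibition. Of about 69,000 compounds tested this way, about 1,000 (1.5%) reached 50% or more in at least one test.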
TcHisRS: 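Enzyme assay of histidyl-tRNA synthetase; the read-out is not stated. Target: Histidine-tRNA ligase, Trypanosoma cruzi CL Brener (UniProt Q4DA54). Concentration: 30 µM. Higher reads as stronger inhibition (inferred: compounds with an IC50 in retests scored well above the rest). Of about 69,000 compounds tested this way, about 31 (0.045%) reached 50% or more in at least one test.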
ClpP1P2: 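ClpP1P2, Mycobacterium tuberculosis (UniProt P9WPC5 and UniProt P9WPC3). Protease assay of ClpP1P2, read by the AMC dye that it sets free. Concentration: 50 µM. Higher reads as stronger inhibition, judged from the few compounds that gave an IC50. Most other retested compounds had strongly negative values. About 69,000 compounds were tested under these conditions; 0.015% (about 10) showed 50% or more at least once.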
Toxoplasma: 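Assay of Toxoplasma gondii numbers, read through their beta-galactosidase reporter with a colour substrate. Concentration: 10 µM. Higher reads as fewer parasites (inferred from which compounds were picked for retests). Size under these conditions: about 67,000 compounds, about 260 of them at 50% or above in at least one test.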
PfKRS1: 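Lysine-tRNA ligase, Plasmodium falciparum 3D7 (UniProt Q8IDJ8). Enzyme assay of the cytosolic lysyl-tRNA synthetase in 384-well plates, read by luminescence. Tested at 30 µM. Higher reads as stronger inhibition, judged from the few compounds that gave an IC50. Of about 69,000 compounds tested this way, about 49 (0.071%) reached 50% or more in at least one test.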

Compound	Leishmania in macrophages	TcHisRS	ClpP1P2	Toxoplasma	PfKRS1
CN(C)C(=O)C1CCN(Cc2csc(C(C)(C)C)n2)CC1	15.43%	2.286%	-18.13%	-0.3408%	-1.25%
O=C1CCCCN1c1cccc(CNC2CCCC2)c1	-18.27%	0.3774%	-7.918%	-6.084%	5.626%
CNC(=O)c1cn[nH]c1C1CCN(Cc2ccccc2OC)C1 (stereo not shown)	5.224%	9.125%	-2.72%	-5.546%	-0.8205%
CCSc1cc(C(=O)NC2CCN(C(=O)c3ccncc3)CC2)ccn1	-3.332% and 10.1%	4.819%	-7.874%	1.011%	8.326%
CC(C)Cc1cn(C2CCN(C(C)CCn3cccn3)CC2)nn1 (stereo not shown)	15.5%	4.819%	-20.4%	7.242%	-0.4363%
O=C(NCc1ccc(CN2CCCCC2)cc1)Nc1cccnc1	5.173%	7.216%	2.734%	-0.9259%	0.3269%
CCN(CC)c1ccc2ccc(C(=O)O)cn12	18.9%	38.04%	7.677%	-5.053%	1.438%
Cn1cc(C2CC(=O)NC23CCN(Cc2ccncc2)CC3)cn1.O=C(O)C(F)(F)F.O=C(O)C(F)(F)F (stereo not shown)	-2.835%	-	-	-0.2999%	-
COC(=O)c1ccc(N2CCN(C(=O)c3cc(C)no3)C(C)C2)cc1 (stereo not shown)	-10.02%	4.094%	-4.739%	1.627%	1.674%
[H][C@@]12CCN(Cc3cccs3)C[C@]1([H])[C@H](c1nc(C)no1)CCO2	8.994%	-	-	-7.941%	-
COc1ccccc1NC(=O)NCc1nnc(SC)n1C	56.86%	3.448%	-14.89%	6.718%	-1.068%
Cc1nc(C(=O)N2CCCC(c3cccc(-n4ccnc4)n3)C2)co1 (stereo not shown)	7.259%	4.865%	0.7749%	19.54%	-1.86%
CN(C)S(=O)(=O)N1CC[C@@H]2CN(Cc3cnn(C)c3)C[C@@H]2C1	-	0%	-15.5%	-	0.1664%
Cc1noc(C)c1CNCC1Cn2nncc2CO1.O=C(O)C(F)(F)F (stereo not shown)	22.56%	-	-	-0.6252%	-
COc1ccc(S(=O)(=O)NC(=O)C(C)OC)c(OC)c1 (stereo not shown)	-4.52%	10.71%	-8.571%	-1.169%	0.884%
CC[C@@H]1N(Cc2nccs2)CCC[C@]12CCC(=O)N2C	-	9.135%	12.09%	-	0.03647%
CCOc1ncccc1NC(=O)NCC(O)c1ccccc1OC (stereo not shown)	26.49%	3.008%	6.691%	-	4.989%
N#CCCNC(=O)c1ccn(-c2ccc3ccccn23)n1	30.82%	19.01%	4.477%	2.319%	6.029%
Cc1cc(C)nc(N2CCC(CNC(=O)c3cnccn3)CC2)n1	-3.286% and -12.37%	8.209%	-5.863%	-1.421%	-0.6528%
Fc1ccc(CN2CCC3(CC2)CC(c2cccnc2)CO3)cc1.O=C(O)C(F)(F)F.O=C(O)C(F)(F)F (stereo not shown)	-4.182%	-	-	-16.04%	-
Cc1ccc(-c2csc3c(=O)[nH]c(N4CCCC(C(N)=O)C4)nc23)cc1 (stereo not shown)	8.656% and 15.48%	1.031%	12.23%	1.673%	4.402%
C1CC(NCc2nc(C3CC3)no2)CN(Cc2noc(C3CC3)n2)C1 (stereo not shown)	-5.372%	5.263%	20.95%	0.1723%	-0.891%
CC1(C)Oc2ccc(S(=O)(=O)NCCCn3ccnc3)cc2NC1=O	-12.2%	-0.7752%	-1.714%	1.62%	-1.602%
Cc1cc(C)n(CC(=O)NC2CCCCNC2=O)n1 (stereo not shown)	3.684%	5.556%	12.22%	-6.197%	-2.405%
COc1cncc(-n2ccnc2-c2ccc(C(=O)O)s2)c1	15.59%	12.45%	-9.622%	8.18%	5.298%
O=C(O)C(F)(F)F.O=C(O)C(F)(F)F.[H][C@@]12CCN(Cc3cccnc3)[C@]1([H])CC[C@H](COCC1CCOCC1)O2	32.91%	-	-	-9.707%	-
Cc1nn(C(C)C)c(C)c1NC(=O)c1cccnc1	21.74%	0%	-6.517%	11.34%	8.13%
Cc1cc(C)c(C#N)c(NCCSc2nncn2C)n1	23.41%	10.05%	-12.32%	-12.31%	-0.2663%
CC(=O)N1CCCC1c1cccc(NCc2ccccc2F)n1 (stereo not shown)	-6.346%	4.255%	11.34%	-20.07%	8.873%
CCc1nc(C)cn1C(=O)Nc1ccc(C)cc1	-59.13%	4.624%	-4.302%	6.661%	2.064%

The values are deposited in ChEMBL (CHEMBL3988442, “University of Dundee, Small-Polar-MMV Screening Library” (2021)).